# The supplement of paper PMC8728848
# This is one part of the list.
# B1: Latrophilin-3 (Homo sapiens), Q9HAR2 (protein)
# chain: MWPSQLLIFMMLLAPIIHAFSRAPIPMAVVRRELSCESYPIELRCPGTDVIMIESANYGRTDDKICDSDPAQMENIRCYLPDAYKIMSQRCNNRTQCAVVAGPDVFPDPCPGTYKYLEVQYECVPYKVEQKVFLCPGLLKGVYQSEHLFESDHQSGAWCKDPLQASDKIYYMPWTPYRTDTLTEYSSKDDFIAGRPTTTYKLPHRVDGTGFVVYDGALFFNKERTRNIVKFDLRTRIKSGEAIIANANYHDTSPYRWGGKSDIDLAVDENGLWVIYATEQNNGKIVISQLNPYTLRIEGTWDTAYDKRSASNAFMICGILYVVKSVYEDDDNEATGNKIDYIYNTDQSKDSLVDVPFPNSYQYIAAVDYNPRDNLLYVWNNYHVVKYSLDFGPLDSRSGQAHHGQVSYISPPIHLDSELERPSVKDISTTGPLGMGSTTTSTTLRTTTLSPGRSTTPSVSGRRNRSTSTPSPAVEVLDDMTTHLPSASSQIPALEESCEAVEAREIMWFKTRQGQIAKQPCPAGTIGVSTYLCLAPDGIWDPQGPDLSNCSSPWVNHITQKLKSGETAANIARELAEQTRNHLNAGDITYSVRAMDQLVGLLDVQLRNLTPGGKDSAARSLNKAMVETVNNLLQPQALNAWRDLTTSDQLRAATMLLHTVEESAFVLADNLLKTDIVRENTDNIKLEVARLSTEGNLEDLKFPENMGHGSTIQLSANTLKQNGRNGEIRVAFVLYNNLGPYLSTENASMKLGTEALSTNHSVIVNSPVITAAINKEFSNKVYLADPVVFTVKHIKQSEENFNPNCSFWSYSKRTMTGYWSTQGCRLLTTNKTHTTCSCNHLTNFAVLMAHVEVKHSDAVHDLLLDVITWVGILLSLVCLLICIFTFCFFRGLQSDRNTIHKNLCISLFVAELLFLIGINRTDQPIACAVFAALLHFFFLAAFTWMFLEGVQLYIMLVEVFESEHSRRKYFYLVGYGMPALIVAVSAAVDYRSYGTDKVCWLRLDTYFIWSFIGPATLIIMLNVIFLGIALYKMFHHTAILKPESGCLDNIKSWVIGAIALLCLLGLTWAFGLMYINESTVIMAYLFTIFNSLQGMFIFIFHCVLQKKVRKEYGKCLRTHCCSGKSTESSIGSGKTSGSRTPGRYSTGSQSRIRRMWNDTVRKQSESSFITGDINSSASLNREGLLNNARDTSVMDTLPLNGNHGNSYSIASGEYLSNCVQIIDRGYNHNETALEKKILKELTSNYIPSYLNNHERSSEQNRNLMNKLVNNLGSGREDDAIVLDDATSFNHEESLGLELIHEESDAPLLPPRVYSTENHQPHHYTRRRIPQDHSESFFPLLTNEHTEDLQSPHRDSLYTSMPTLAGVAATESVTTSTQTEPPPAKCGDAEDVYYKSMPNLGSRNHVHQLHTYYQLGRGSSDGFIVPPNKDGTPPEGSSKGPAHLVTSL
# Columns and labels:
# Test in all cases: glycan array binding signal (z-score within array); higher = stronger binding
# Details in all cases: glycan notation: IUPAC condensed, linker removed
# [1] = biological target: Fuc(a1-2)[GalNAc(a1-3)]Gal(b1-4)GlcNAc(b1-3)Gal(b1-4)GlcNAc
# How it was run: (§1)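 Glycan array data were curated from 3228 arrays in the Consortium for Functional Glycomics database and kept only where the protein sequence was available. Glycan names were converted to IUPAC-condensed notation, and columns mapping to the same glycan were averaged. The binding signal is a within-array Z-score, averaged across arrays of the same protein sequence at different concentrations or buffers and across linkers. Negative Z-scores can be read as non-binding.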
# [2] = biological target: Fuc(a1-2)[GalNAc(a1-3)]Gal(b1-4)GlcNAc(b1-3)Gal(b1-4)GlcNAc(b1-3)Gal(b1-4)GlcNAc
# How it was run: as §1
# [3] = biological target: Fuc(a1-2)[GalNAc(a1-3)]Gal(b1-4)GlcNAc(b1-3)GalNAc
# How it was run: as §1
# [4] = biological target: Fuc(a1-2)[GalNAc(a1-3)]Gal(b1-4)[Fuc(a1-3)]GlcNAc
# How it was run: as §1
# [5] = biological target: Fuc(a1-2)[GalNAc(a1-3)]Gal(b1-4)[Fuc(a1-3)]GlcNAc(b1-3)GalNAc
# How it was run: as §1
# [6] = biological target: Fuc(a1-2)[GalNAc(a1-4)]Gal(b1-4)GlcNAc
# How it was run: as §1
# [7] = biological target: Fuc(a1-2)[GalNAc(b1-3)]Gal
# How it was run: as §1
# [8] = biological target: Fuc(a1-3)GlcNAc
# How it was run: as §1
# [9] = biological target: Fuc(a1-3)[Gal(b1-4)]Glc6S
# How it was run: as §1
# [10] = biological target: Fuc(a1-3)[Gal(b1-4)]GlcNAc
# How it was run: as §1
# [11] = biological target: Fuc(a1-3)[Gal(b1-4)]GlcNAc(b1-2)Man
# How it was run: as §1
# [12] = biological target: Fuc(a1-3)[Gal(b1-4)]GlcNAc(b1-2)Man(a1-3)[Fuc(a1-3)[Gal(b1-4)]GlcNAc(b1-2)Man(a1-6)]Man(b1-4)GlcNAc(b1-4)GlcNAc
# How it was run: as §1
# [13] = biological target: Fuc(a1-3)[Gal(b1-4)]GlcNAc(b1-2)Man(a1-3)[Fuc(a1-3)[Gal(b1-4)]GlcNAc(b1-2)Man(a1-6)]Man(b1-4)GlcNAc(b1-4)[Fuc(a1-6)]GlcNAc
# How it was run: as §1
# [14] = biological target: Fuc(a1-3)[Gal(b1-4)]GlcNAc(b1-3)Gal(b1-3)[Fuc(a1-4)]GlcNAc
# How it was run: as §1
# [15] = biological target: Fuc(a1-3)[Gal(b1-4)]GlcNAc(b1-3)GalNAc
# How it was run: as §1
# [16] = biological target: Fuc(a1-3)[Gal(b1-4)]GlcNAc(b1-4)Gal(b1-4)[Fuc(a1-3)]GlcNAc
# How it was run: as §1
# [17] = biological target: Fuc(a1-3)[Gal(b1-4)]GlcNAc(b1-4)Gal(b1-4)[Fuc(a1-3)]GlcNAc(b1-4)Gal(b1-4)[Fuc(a1-3)]GlcNAc
# How it was run: as §1
# [18] = biological target: Fuc(a1-3)[Gal(b1-4)]GlcNAc(b1-6)GalNAc
# How it was run: as §1
# [19] = biological target: Fuc(a1-3)[Gal(b1-4)]GlcNAc(b1-6)[Gal(b1-3)GlcNAc(b1-3)]Gal(b1-4)Glc
# How it was run: as §1
# [20] = biological target: Fuc(a1-3)[Gal(b1-4)]GlcNAc(b1-6)[Neu5Ac(a2-3)Gal(b1-3)]GalNAc
# How it was run: as §1
# [21] = biological target: Fuc(a1-3)[Gal(b1-4)]GlcNAc6S
# How it was run: as §1
# [22] = biological target: Fuc(a1-3)[Gal3S(b1-4)]GlcNAc
# How it was run: as §1
# [23] = biological target: Fuc(a1-3)[Gal3S(b1-4)]GlcNAc6S
# How it was run: as §1
# [24] = biological target: Fuc(a1-3)[GalNAc(b1-4)]GlcNAc
# How it was run: as §1
# [25] = biological target: Fuc(a1-3)[GalNAc(b1-4)]GlcNAc6S
# How it was run: as §1
# [26] = biological target: Fuc(a1-3)[GalNAc3S(b1-4)]GlcNAc
# How it was run: as §1
# [27] = biological target: Fuc(a1-4)GlcNAc
# How it was run: as §1
# [28] = biological target: Fuc(b1-3)GlcNAc
# How it was run: as §1
# [29] = biological target: Gal(a1-2)Gal
# How it was run: as §1
# [30] = biological target: Gal(a1-3)Gal
# How it was run: as §1
# [31] = biological target: Gal(a1-3)Gal(b1-3)GlcNAc
# How it was run: as §1
# [32] = biological target: Gal(a1-3)Gal(b1-3)GlcNAc(b1-2)Man(a1-3)[Gal(a1-3)Gal(b1-3)GlcNAc(b1-2)Man(a1-6)]Man(b1-4)GlcNAc(b1-4)GlcNAc
# How it was run: as §1
# [33] = biological target: Gal(a1-3)Gal(b1-3)GlcNAc(b1-3)GalNAc
# How it was run: as §1
# [34] = biological target: Gal(a1-3)Gal(b1-3)GlcNAc(b1-6)GalNAc
# How it was run: as §1
# [35] = biological target: Gal(a1-3)Gal(b1-3)[Fuc(a1-4)]GlcNAc(b1-2)Man(a1-3)[Gal(a1-3)Gal(b1-3)[Fuc(a1-4)]GlcNAc(b1-2)Man(a1-6)]Man(b1-4)GlcNAc(b1-4)GlcNAc
# How it was run: as §1
# [36] = biological target: Gal(a1-3)Gal(b1-4)Glc
# How it was run: as §1
# [37] = biological target: Gal(a1-3)Gal(b1-4)GlcNAc
# How it was run: as §1
# [38] = biological target: Gal(a1-3)Gal(b1-4)GlcNAc(b1-3)GalNAc
# How it was run: as §1
# [39] = biological target: Gal(a1-3)Gal(b1-4)GlcNAc(b1-6)GalNAc
# How it was run: as §1
# [40] = biological target: Gal(a1-3)Gal(b1-4)[Fuc(a1-3)]GlcNAc
# How it was run: as §1
# [41] = biological target: Gal(a1-3)Gal(b1-4)[Fuc(a1-3)]GlcNAc(b1-2)Man(a1-3)[Gal(a1-3)Gal(b1-4)[Fuc(a1-3)]GlcNAc(b1-2)Man(a1-6)]Man(b1-4)GlcNAc(b1-4)GlcNAc
# How it was run: as §1
# [42] = biological target: Gal(a1-3)GalNAc
# How it was run: as §1
# [43] = biological target: Gal(a1-3)[Gal(a1-4)]Gal(b1-4)GlcNAc
# How it was run: as §1
# [44] = biological target: Gal(a1-4)Gal(b1-3)GlcNAc(b1-2)Man(a1-3)[Gal(a1-4)Gal(b1-3)GlcNAc(b1-2)Man(a1-6)]Man(b1-4)GlcNAc(b1-4)GlcNAc
# How it was run: as §1
# [45] = biological target: Gal(a1-4)Gal(b1-4)Glc
# How it was run: as §1
binder,measurement,setting,value
B1,glycan array binding signal (z-score),[1],0.586
same,glycan array binding signal (z-score),[2],0.608
same,glycan array binding signal (z-score),[3],-0.844
same,glycan array binding signal (z-score),[4],-0.398
same,glycan array binding signal (z-score),[5],4.19
same,glycan array binding signal (z-score),[6],-0.369
same,glycan array binding signal (z-score),[7],1.41
same,glycan array binding signal (z-score),[8],-0.243
same,glycan array binding signal (z-score),[9],-0.69
same,glycan array binding signal (z-score),[10],0.037
same,glycan array binding signal (z-score),[11],1.92
same,glycan array binding signal (z-score),[12],1.24
same,glycan array binding signal (z-score),[13],-0.135
same,glycan array binding signal (z-score),[14],0.571
same,glycan array binding signal (z-score),[15],-0.702
same,glycan array binding signal (z-score),[16],0.632
same,glycan array binding signal (z-score),[17],1.42
same,glycan array binding signal (z-score),[18],-0.197
same,glycan array binding signal (z-score),[19],0.641
same,glycan array binding signal (z-score),[20],-0.297
same,glycan array binding signal (z-score),[21],-0.64
same,glycan array binding signal (z-score),[22],0.232
same,glycan array binding signal (z-score),[23],-0.597
same,glycan array binding signal (z-score),[24],-0.011
same,glycan array binding signal (z-score),[25],0.053
same,glycan array binding signal (z-score),[26],1.2
same,glycan array binding signal (z-score),[27],-0.164
same,glycan array binding signal (z-score),[28],0.042
same,glycan array binding signal (z-score),[29],2.83
same,glycan array binding signal (z-score),[30],-0.586
same,glycan array binding signal (z-score),[31],0.121
same,glycan array binding signal (z-score),[32],1.53
same,glycan array binding signal (z-score),[33],-1.02
same,glycan array binding signal (z-score),[34],-0.37
same,glycan array binding signal (z-score),[35],-1.37
same,glycan array binding signal (z-score),[36],-0.797
same,glycan array binding signal (z-score),[37],-0.823
same,glycan array binding signal (z-score),[38],-1.06
same,glycan array binding signal (z-score),[39],1.24
same,glycan array binding signal (z-score),[40],-0.174
same,glycan array binding signal (z-score),[41],1.87
same,glycan array binding signal (z-score),[42],0.238
same,glycan array binding signal (z-score),[43],0.937
same,glycan array binding signal (z-score),[44],-0.388
same,glycan array binding signal (z-score),[45],0.026

# A run of entries of the results above, for reference:
binder,measurement,setting,value
B1,glycan array binding signal (z-score),[43],0.937
same,glycan array binding signal (z-score),[44],-0.388
same,glycan array binding signal (z-score),[45],0.026
